Paper PMC7156461
No constants are given. Whether binding was seen depends on the method and setting. Binding seen in cells or lysates may run through a third protein.

Chains of the proteins cited; added tags and fusions are not shown. Residues count along the entry.
UniProt P20152: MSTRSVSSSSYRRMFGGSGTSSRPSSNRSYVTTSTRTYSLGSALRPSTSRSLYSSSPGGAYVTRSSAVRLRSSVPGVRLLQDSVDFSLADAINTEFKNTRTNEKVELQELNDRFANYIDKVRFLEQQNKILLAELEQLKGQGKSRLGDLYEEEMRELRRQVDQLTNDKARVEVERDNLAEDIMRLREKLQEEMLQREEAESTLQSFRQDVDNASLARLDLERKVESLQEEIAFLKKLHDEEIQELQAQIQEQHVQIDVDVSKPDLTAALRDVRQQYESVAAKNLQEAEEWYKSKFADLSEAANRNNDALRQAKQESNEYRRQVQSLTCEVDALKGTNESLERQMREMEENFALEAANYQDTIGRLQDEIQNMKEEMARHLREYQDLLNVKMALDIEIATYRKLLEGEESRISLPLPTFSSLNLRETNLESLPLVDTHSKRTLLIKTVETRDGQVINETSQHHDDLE
UniProt Q888Y7, residues 1-90: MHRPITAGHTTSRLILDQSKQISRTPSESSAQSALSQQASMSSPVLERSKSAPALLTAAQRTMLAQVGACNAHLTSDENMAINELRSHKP

Molecular target: vimentin (mouse (endogenous in B16F10)) (UniProt P20152)
Experiment: co-IP; whole-cell lysates of transfected B16F10 cells, IP with anti-Vimentin antibody on magnetic beads, immunoblot with anti-Myc, anti-14-3-3 or anti-p62; in one panel the cells were treated with R18 at 10 μM and 25 μM for 12 h

Myc-HopQ N90, containing only an N-terminal 90 amino-acid region (from UniProt Q888Y7 1-90) (domain or fragment)
binding: no binding
